# Measured values as given in PubChem BioAssay AID2685 (National Center for Advancing Translational Sciences (NCATS), 2010).
# Out of some 320,000 compounds screened, about 2,100 (0.66%) were called active. Inconclusive results, whose numbers are uncertain, are shown with a selection of clear calls. Calls come from the whole dose curve; as a rule, active = well fitted inhibition curve with a large enough effect in the signal ratio, with a control signal flat (not every such curve was filed as active); inconclusive = small, poorly fitted or top-dose-only effect, or effect the other way, or a change in a side signal; inactive = flat fitted curve, though single readings scatter; the % refers to the signal ratio. Where the call is inconclusive, the potency comes from a doubtful curve fit.
# Assay: qHTS Assay for Lipid Storage Modulators in Drosophila S3 Cells
# Conditions: BODIPY lipid droplet fluorescence, 18-24 h, cells fed with added oleic acid; lipid storage change, negative = inhibition: at 46.1 µM (top of the series) unless noted
# In short: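 Drosophila S3 cells loaded with oleic acid (400 uM, as added) and compounds at several concentrations; lipid droplets imaged by 488-nm laser-scanning cytometry, 500–530 nm intensity and object ratio to cell channel. Percent activity normalized to 20 uM Triacsin C.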
# % is set by controls: 0 for no effect and ±100 for the full control effect; potency is the fitted concentration of half-maximal effect.
Compound,"lipid storage change, negative = inhibition",Potency
CCCc1nc2oc3c(NCCN(C)C)ncnc3c2c2c1CCCC2,inconclusive: -11.2%,
O=C(COc1ccc(Br)cc1CO)Nc1ccccc1,inconclusive: -36.8%,
CCOc1ccc(NC(=O)CN(C)C(=O)c2ccc3c(c2)C(=O)N(CCC(C)C)C3=O)cc1OCC,,"inconclusive: 3.66 µM [activator, single point]"
Cc1ccc(-c2nnn(CC(=O)N(CC(=O)NC3CCCCC3)c3ccccc3F)n2)o1,inconclusive: 153%,
CC1CCCC(NC(=O)CN(C)CC(=O)Nc2ccc(F)cc2)C1C (configuration not stated),inconclusive: 5.85%,
Cc1ccc(C)c(OCCC(=O)NNC(=O)c2ccccc2F)c1,inconclusive,
O=S(=O)(O)Oc1c[nH]c2ccccc12,,"inconclusive: 1.46 µM [activator, partial curve]"
Cc1cc(OCC(=O)C(C)(C)C)c2c(C)c(C)c(=O)oc2c1,inconclusive: 52.4%,
Cc1ccc(C)c(S(=O)(=O)N2CCN(C(=O)CCNC(=O)c3ccc(Br)cc3)CC2)c1,inconclusive: 8.68% [at 0.0737 µM],
CCO[C@@H]1OC(C(=O)N2CCN(Cc3ccc4c(c3)OCO4)CC2)=C[C@H](c2ccc(C(F)(F)F)cc2)[C@H]1CCCO,inconclusive: -29.8%,
COc1ccc(Cc2noc(CN(C)CC(O)c3ccccc3)n2)cc1OC (configuration not stated),inconclusive: 9.95%,
CCOC(=O)C1C(=O)NC(N2CCN(Cc3ccccc3)CC2)=NC1c1ccccc1 (configuration not stated),inconclusive: -1.99%,
COc1ccc(CCNC(=O)CN(c2cc(OC)ccc2OC)S(=O)(=O)c2ccccc2)cc1,,"inconclusive: 8.2 µM [falling, partial curve, poor fit]"
CC1(C)CC(=O)C=C(NCC(=O)O)C1,inconclusive: -54.3%,
O=C(CCC(=O)NNC(=O)c1ccc([N+](=O)[O-])cc1)NCc1ccccc1,inconclusive: 101%,
CC(=O)c1cnn(-c2ccc(Cl)cc2)c1C,inconclusive: 13.1%,
Fc1cc(Br)ccc1COc1ccc(-c2nnco2)cc1,,"inconclusive: 4.61 µM [activator, full curve]"
CCC1CCCCN1C(=O)CSc1nnc(CNC(=O)c2c(F)cccc2Cl)o1 (configuration not stated),inconclusive: 128%,
C/C(=N\NC1=NCCN1)c1ccc(N)c([N+](=O)[O-])c1,inconclusive: 6.11%,
COC(=O)C1CCN(Cc2cc(=O)oc3cc(OC)ccc23)CC1,,"inconclusive: 29.1 µM [activator, single point]"
CCCn1c(N)c(C(=O)CSc2ncn[nH]2)c(=O)n(C)c1=O,inconclusive: 14.4%,
N#Cc1ccc2[nH]c(CO)c(-c3ccccc3)c2c1,,"inconclusive: 16.4 µM [activator, single point]"
CCSc1nnc(NC(=O)c2cccc3ccccc23)s1,inconclusive: -4.34%,
CC(C)Cc1ccc(C(C)NC(=O)Cc2ccc(S(=O)(=O)N3CCOCC3)s2)cc1 (configuration not stated),inconclusive: 17.7%,
COc1ccc(-c2cn3c(C)c(C(=O)N4CCN(c5ccccc5F)CC4)sc3n2)cc1,,"inconclusive: 20.6 µM [falling, single point]"
CC#CC[N+](C)(C)CCCCCC,inconclusive: -4.36%,

# 23 entries from above, with bars between the fields.
Compound | lipid storage change, negative = inhibition | Potency
O=C(COc1ccc(Br)cc1CO)Nc1ccccc1 | inconclusive: -36.8% | 
CCOc1ccc(NC(=O)CN(C)C(=O)c2ccc3c(c2)C(=O)N(CCC(C)C)C3=O)cc1OCC |  | inconclusive: 3.66 µM [activator, single point]
Cc1ccc(-c2nnn(CC(=O)N(CC(=O)NC3CCCCC3)c3ccccc3F)n2)o1 | inconclusive: 153% | 
CC1CCCC(NC(=O)CN(C)CC(=O)Nc2ccc(F)cc2)C1C (configuration not stated) | inconclusive: 5.85% | 
Cc1ccc(C)c(OCCC(=O)NNC(=O)c2ccccc2F)c1 | inconclusive | 
O=S(=O)(O)Oc1c[nH]c2ccccc12 |  | inconclusive: 1.46 µM [activator, partial curve]
Cc1cc(OCC(=O)C(C)(C)C)c2c(C)c(C)c(=O)oc2c1 | inconclusive: 52.4% | 
Cc1ccc(C)c(S(=O)(=O)N2CCN(C(=O)CCNC(=O)c3ccc(Br)cc3)CC2)c1 | inconclusive: 8.68% [at 0.0737 µM] | 
CCO[C@@H]1OC(C(=O)N2CCN(Cc3ccc4c(c3)OCO4)CC2)=C[C@H](c2ccc(C(F)(F)F)cc2)[C@H]1CCCO | inconclusive: -29.8% | 
COc1ccc(Cc2noc(CN(C)CC(O)c3ccccc3)n2)cc1OC (configuration not stated) | inconclusive: 9.95% | 
CCOC(=O)C1C(=O)NC(N2CCN(Cc3ccccc3)CC2)=NC1c1ccccc1 (configuration not stated) | inconclusive: -1.99% | 
COc1ccc(CCNC(=O)CN(c2cc(OC)ccc2OC)S(=O)(=O)c2ccccc2)cc1 |  | inconclusive: 8.2 µM [falling, partial curve, poor fit]
CC1(C)CC(=O)C=C(NCC(=O)O)C1 | inconclusive: -54.3% | 
O=C(CCC(=O)NNC(=O)c1ccc([N+](=O)[O-])cc1)NCc1ccccc1 | inconclusive: 101% | 
CC(=O)c1cnn(-c2ccc(Cl)cc2)c1C | inconclusive: 13.1% | 
Fc1cc(Br)ccc1COc1ccc(-c2nnco2)cc1 |  | inconclusive: 4.61 µM [activator, full curve]
CCC1CCCCN1C(=O)CSc1nnc(CNC(=O)c2c(F)cccc2Cl)o1 (configuration not stated) | inconclusive: 128% | 
C/C(=N\NC1=NCCN1)c1ccc(N)c([N+](=O)[O-])c1 | inconclusive: 6.11% | 
COC(=O)C1CCN(Cc2cc(=O)oc3cc(OC)ccc23)CC1 |  | inconclusive: 29.1 µM [activator, single point]
CCCn1c(N)c(C(=O)CSc2ncn[nH]2)c(=O)n(C)c1=O | inconclusive: 14.4% | 
N#Cc1ccc2[nH]c(CO)c(-c3ccccc3)c2c1 |  | inconclusive: 16.4 µM [activator, single point]
CCSc1nnc(NC(=O)c2cccc3ccccc23)s1 | inconclusive: -4.34% | 
CC(C)Cc1ccc(C(C)NC(=O)Cc2ccc(S(=O)(=O)N3CCOCC3)s2)cc1 (configuration not stated) | inconclusive: 17.7% | 

# (further entries)

Compound,"lipid storage change, negative = inhibition",Potency
CN(C)S(=O)(=O)c1cccc(-c2nnc(SCc3ccc4c(c3)OCCO4)o2)c1,inconclusive: 37.1%,
COc1ccc(C)cc1NC(=O)c1sc2nc(C)nc(N3CCOCC3)c2c1C,inconclusive: 53.7%,
Cc1ccc(NC(=O)CSCC(=O)Nc2ccccc2C(=O)NC2CC2)cc1,inconclusive: 24%,
CC(CNC(=O)c1ccco1)NC(=O)c1ccco1 (configuration not stated),,"inconclusive: 29.1 µM [falling, single point]"
COCCN(C(=O)c1ccc(-c2ccc(Cl)cc2)o1)c1c(N)n(CC(C)C)c(=O)[nH]c1=O,,"inconclusive: 29.1 µM [falling, single point]"
CCCC[C@]12Cc3ccccc3C(O1)c1c(cc(-c3ccccc3)oc1=O)O2,,"inconclusive: 4.22 µM [falling, single point]"
CCOC(=O)c1ccc(NC(=S)NC(=O)c2cncc(Br)c2)cc1,inconclusive: 10.1%,
CCNc1nc(NCC)n2c(SCC(=O)Nc3ccccc3C(F)(F)F)nnc2n1,inconclusive: 27.9%,
Cc1cccc(-c2nc(S(=O)(=O)c3ccc(F)cc3)c(NCCCN3CCOCC3)o2)c1,,"inconclusive: 6.51 µM [activator, single point]"
CCCCN(C)C(=S)Nc1ccc2nc(N3CCN(CC)CC3)cc(C)c2c1,inconclusive: 24.6%,
Cc1ccccc1-n1nc2c(c1NC(=O)c1cc3ccccc3oc1=O)CS(=O)C2 (configuration not stated),inconclusive: 12.1%,
O=C(N/N=C\c1cn[nH]c1-c1ccccc1)c1cccnc1,,"inconclusive: 16.4 µM [rising, partial curve]"
CCCC(=O)Nc1ccccc1-c1nnc(SC)[nH]c1=O,inconclusive: -5.35% [at 9.22 µM],
NS(=O)(=O)c1ccc(N/C=C\C(=O)c2ccc(F)cc2)cc1,inconclusive: 12.3%,
COC(=O)C1=C(C)NC(=O)NC1C1CC=CCC1 (configuration not stated),inconclusive: 5.72%,
CO/C=C/C#CC1(O)CCN(C)CC1,inconclusive: 32.8%,
N#Cc1ccccc1CSc1nc(N)cc(N)n1,inconclusive: 38.4%,
O=C(CCN1CCOCC1)NC12CC3CC(CC(C3)C1)C2,inconclusive: -25.7%,
CC(=O)c1c(C)[nH]c(C(=O)OCC(=O)N2CC(C)OC(C)C2)c1C (configuration not stated),inconclusive: 19.5%,
COc1cccc(N(CC(=O)NC2CCCC2)C(=O)CCC(=O)Nc2cc(C)on2)c1,,"inconclusive: 0.082 µM [activator, partial curve, poor fit]"
COc1ccccc1OCCNc1ccc(S(=O)(=O)N2CCCC2)cn1,inconclusive,
O=C(Nc1cc(C(F)(F)F)ccc1N1CCCCC1)c1ccco1,,"inconclusive: 1.64 µM [activator, full curve]"
CCCCC[C@H]1CN(C2CCCCC2)C(=O)[C@@H]1CC(=O)NCc1ccc(OC)cc1,,"inconclusive: 23.1 µM [falling, partial curve, poor fit]"
Cc1[nH]cc(Br)c(=O)c1Oc1ncc(C(F)(F)F)cc1Cl,inconclusive: 45.8%,
CCN(CC)CCOC(=O)c1ccc(NC(=O)c2cn(-c3ccccc3)nc2-c2cccs2)cc1,inconclusive: 32.6%,
CCn1ncc(Br)c1C(=O)NC1CCCCCCC1,,"inconclusive: 29.1 µM [activator, single point]"

Compound,"lipid storage change, negative = inhibition",Potency
O=C(Nc1ccccc1Cl)N1CCN(c2ccc3nnc(-c4ccc(F)cc4)n3n2)CC1,inconclusive: 23.3%,
Cc1ccc(NC(=O)c2cc3ccccc3oc2=N)cc1,inconclusive: 8.53%,
COc1cccc(-c2cc(C(=O)NCC3CCCO3)c3cc(Br)cc(C)c3n2)c1 (configuration not stated),inactive,
O=C(COC(=O)CNC(=O)c1ccc(Br)o1)Nc1ccc2c(c1)OCCO2,,"inconclusive: 29.1 µM [activator, single point]"
CSCCC(NS(=O)(=O)c1cccs1)C(=O)NCc1ccc(C)cc1 (configuration not stated),inconclusive: -3.17%,
CCNc1nc(NCC)nc(N(C)N)n1,,"inconclusive: 0.651 µM [activator, partial curve, poor fit]"
COc1ccc(Cc2nc3ccc(C(=O)N(C)CC4COCCO4)cc3o2)cc1 (configuration not stated),inconclusive: 30.8%,
Cc1ccc(Nc2nnc(SCc3cc(=O)n4ccsc4n3)s2)c(C)c1,,"inconclusive: 0.651 µM [activator, partial curve]"
COc1ccc(/C=N/Nc2nncn2N)cc1Br,inconclusive: -76.4%,
Cc1ccc(S(=O)(=O)N2CCN(C(=O)c3cc4c(s3)CCC(C)C4)CC2)cc1 (configuration not stated),inconclusive,
O=C(NNc1ccc(Cl)cc1)c1c(F)cccc1Cl,,"inconclusive: 32.6 µM [falling, single point]"
COc1ccc(-n2c(COc3ccc(Cl)cc3)nnc2SCc2ccc(C#N)cc2)cc1,,"inconclusive: 1.3 µM [activator, full curve]"
CCn1c(N2CCN(CC(=O)c3c[nH]c4ccccc34)CC2)nc2c1c(=O)[nH]c(=O)n2C,inconclusive: 13.1%,
COc1ccc(N2C(=O)N3[C@H](c4ccc(Cl)cc4)[C@@H]4C(=O)N(C5CCCCC5)C(=O)[C@@H]4[C@]3(C)C2=O)cc1,inconclusive: -64.1%,
CSc1nnc(CCNS(=O)(=O)c2ccccc2Br)n1C,inconclusive: 86.5%,
CC(C)c1ccc(/C=C/C(=O)NC2=NCCS2)cc1,inconclusive: -8.14%,
CCCCNS(=O)(=O)c1ccc2nc(-c3cccnc3)cc(C(=O)NCC(OC)OC)c2c1,,"inconclusive: 0.103 µM [rising, full curve]"
O=C(Cc1ccccc1[N+](=O)[O-])NCc1ccncc1,inconclusive: -43% [cytotoxic] [at 0.369 µM],
Cc1ccc(NC(=O)c2c(C)nc3ccccn23)cc1C,inconclusive: 8.72%,
CCOc1ccccc1NC(=O)CC1SC(=N)N(c2ccccc2)C1=O (configuration not stated),inconclusive: -25.1%,
COc1ccc(CN2CCN(Cc3cccc(OC)c3)C(CCO)C2)cc1 (configuration not stated),inactive,
COc1cc(C(=O)NCCN=C2NS(=O)(=O)c3ccccc32)cc(OC)c1OC,inconclusive: -146%,
CCOc1ccc(-c2n[nH]c(C)c2-c2ccccn2)c(O)c1,,"inconclusive: 29.1 µM [rising, single point]"
CN1CCN(c2oc(/C=C/c3ccccc3)nc2C#N)CC1,inconclusive: 58.5%,
Cc1ccc(C2C(C#N)=C(N)Oc3cc(N)ccc32)cc1 (configuration not stated),inconclusive: 48.8%,
